# Data from the supplement of paper PMC4604168 (melanoma cell lines).
# The list shows a part of the results. Many values rest on one well or one pass, so single values are uncertain.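 Imaging used 1,536-well plates; nuclei positive for cleaved PARP by antibody were divided by total DNA-stained nuclei to yield the apoptosis fraction. Doses for screening kept most cells viable, and cell lines differ markedly in resting and induced cleaved-PARP levels.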
# Key:
# Assay in all cases: cleaved PARP positive nuclei fraction relative to DMSO control; melanoma cells; higher = more apoptosis
# Settings in all cases: library dose: low library concentration; 72 h
# [1] = system: MZ2-MEL
# [2] = system: MeWo
# [3] = system: RPMI7951
# [4] = system: RVH-421
# [5] = system: SkMel28
# [6] = system: SkMel2
# [7] = system: SkMel30
# [8] = system: SkMel5
# [9] = system: UACC257
# [10] = system: UACC62
# [11] = system: WM115
# [12] = system: WM1716
# [13] = system: WM1745
# [14] = system: WM3526
# [15] = system: WM3619
# [16] = system: WM451Lu
Compound,cleaved PARP positive nuclei fraction [1],cleaved PARP positive nuclei fraction [2],cleaved PARP positive nuclei fraction [3],cleaved PARP positive nuclei fraction [4],cleaved PARP positive nuclei fraction [5],cleaved PARP positive nuclei fraction [6],cleaved PARP positive nuclei fraction [7],cleaved PARP positive nuclei fraction [8],cleaved PARP positive nuclei fraction [9],cleaved PARP positive nuclei fraction [10],cleaved PARP positive nuclei fraction [11],cleaved PARP positive nuclei fraction [12],cleaved PARP positive nuclei fraction [13],cleaved PARP positive nuclei fraction [14],cleaved PARP positive nuclei fraction [15],cleaved PARP positive nuclei fraction [16]
"O=C(O)[C@@H]1[O][Sb](=[O])([O][Sb]2(=[O])[O][C@H]([C@H](O)CO)[C@H](O)[C@H](C(=O)O)[O]2)[O][C@H]([C@H](O)CO)[C@@H]1O (some centres undefined) [stibogluconate] + O=C(CCCCCCC(=O)Nc1ccccc1)NO [vorinostat] (first compound 2 µM, partner dose 0.08 µM)",112%,151%,84.4%,324%,390%,39.9%,59.5%,125%,166%,49.3%,62%,114%,1550%,55%,108%,362%
"CNC(=O)c1cc(Oc2ccc(NC(=O)Nc3ccc(Cl)c(C(F)(F)F)c3)cc2)ccn1 [sorafenib] + CC1(C)NC(=O)N(c2ccc([N+](=O)[O-])c(C(F)(F)F)c2)C1=O [nilutamide] (first compound 0.4 µM, partner dose 1 µM)",118%,102%,144%,91.6%,173%,176%,141%,137%,129%,308%,199%,165%,86.1%,65.9%,94.3%,214%
"C[C@@H](Oc1cc(-c2cnn(C3CCNCC3)c2)cnc1N)c1c(Cl)ccc(F)c1Cl [Crizotinib] + Cn1cc(/C=C2\C(=O)Nc3cccnc32)c2ccccc21 [GW441756] (first compound 0.2 µM, partner dose 0.4 µM)",88.6%,83.8%,181%,66.1%,227%,46.9%,49.1%,80.9%,36.9%,130%,35.9%,110%,83.7%,34.6%,79.9%,98.9%
"C=C(c1ccc(C(=O)O)cc1)c1cc2c(cc1C)C(C)(C)CCC2(C)C [Bexarotene] + OCCn1cc(-c2cnc3nnn(Cc4ccc5ncccc5c4)c3n2)cn1 [PF04217903] (first compound 2 µM, partner dose 1 µM)",69%,131%,50.9%,49.4%,69%,161%,60.3%,43.1%,31.2%,37.4%,94.9%,116%,105%,125%,98.9%,115%
"CC(C)C[C@H](NC(=O)[C@H](Cc1ccccc1)NC(=O)c1cnccn1)B(O)O [Bortezomib] + C=CCn1c(=O)c2cnc(Nc3ccc(N4CCN(C)CC4)cc3)nc2n1-c1cccc(C(C)(C)O)n1 [MK1775] (first compound 0.001 µM, partner dose 0.02 µM)",37%,149%,98.9%,154%,433%,45%,73.5%,139%,173%,139%,209%,228%,122%,94.4%,230%,56.7%
"O=C(O)[C@@H]1[O][Sb](=[O])([O][Sb]2(=[O])[O][C@H]([C@H](O)CO)[C@H](O)[C@H](C(=O)O)[O]2)[O][C@H]([C@H](O)CO)[C@@H]1O (some centres undefined) [stibogluconate] + C[C@@H]1CCN(C(=O)CC#N)C[C@@H]1N(C)c1ncnc2[nH]ccc12 [CP690550] (first compound 2 µM, partner dose 1 µM)",52.5%,83.4%,164%,223%,127%,132%,59.3%,26%,113%,87.8%,66%,67.6%,87.9%,113%,81.6%,25.1%
"C=C(c1ccc(C(=O)O)cc1)c1cc2c(cc1C)C(C)(C)CCC2(C)C [Bexarotene] + O=C(O)c1ccc(-c2c[nH]c3ncc(-c4ccccc4)cc23)cc1C1CCCC1 [GSK650394] (first compound 2 µM, partner dose 0.16 µM)",57.9%,46.5%,172%,74%,72.8%,59.9%,119%,148%,68.9%,48.8%,66.2%,54.2%,94.3%,69.2%,92%,81.2%
"O=C(O)c1ccc2c(c1)nc(Nc1cccc(Cl)c1)c1ccncc12 + COC(=O)c1sccc1S(=O)(=O)Nc1ccc(Nc2ccccc2)cc1OC [GSK0660] (first compound 0.4 µM, partner dose 1 µM)",59.7%,82.6%,73.1%,103%,101%,122%,78.7%,61.2%,203%,62.3%,186%,153%,105%,81.8%,83.8%,89.5%
"Nc1nc(F)nc2c1ncn2[C@@H]1O[C@H](CO)[C@@H](O)[C@@H]1O [fludarabine] + O=C(O)c1ccc(-c2c[nH]c3ncc(-c4ccccc4)cc23)cc1C1CCCC1 [GSK650394] (first compound 0.2 µM, partner dose 0.16 µM)",111%,862%,126%,52.2%,114%,728%,360%,184%,605%,245%,171%,112%,87%,206%,109%,367%
